Here are results for 18 substances from PMC6259748, “Selection of Peptides Targeting Helix 31 of Bacterial 16S Ribosomal RNA by Screening M13 Phage-Display Libraries” (Molecules, 2011).

“And” between values parts separate entries of the source, which are not always exact repeats. Identical values can stand only once.

The test system of the first data set is modified h31 (unmodified h31 in counter selection). The experiment in a line: phage-display selection against modified h31 with unmodified h31 counter selection in round 3. Type of data set: binding, E. coli. The note with it: one hundred phage isolates sequenced after third round; unmodified h31 in counter selection in round 3.
With “CVRAPTL [heptapeptide from counter selection]”, the Frequency came to 2.

In the case of “CVRPFAL [heptapeptide from selection against modified h31 with unmodified h31 counter selection]”, the Frequency is listed as 5.

Consider “TLWDLIP [heptapeptide selected against modified h31, with and without counter selection]”, for which the Frequency was determined as 2.

As to “TLWPLSP [heptapeptide from counter selection]”, the Frequency is on record as 2.

“TVRPFTL [heptapeptide from counter selection]” came in with a Frequency of 2.

The test system of the next data set is unmodified h31. Kind of data set: phage-display selection against unmodified h31. In kind it is binding, E. coli. To be noted: two hundred phage isolates sequenced after fourth round; unmodified h31 target.
In turn, “HHHPPLA [major heptapeptide selected against unmodified h31]” returned a Frequency of 5.

For “HHPPFPP [heptapeptide selected against unmodified h31]”, the Frequency was 2.

“HNHLGVH [heptapeptide selected against unmodified h31]” came in with a Frequency of 2.

“HPPHFPN [heptapeptide selected against unmodified h31]” showed a Frequency of 1.

“HPPSWGD [heptapeptide selected against unmodified h31]”: the Frequency was found to be 2.

On to “HPTGLFR [heptapeptide selected against unmodified h31]”, for which the Frequency is 2.

On to “KPFHNST [major heptapeptide selected against unmodified h31]”, for which the Frequency is 2 and 3.

“KPGYSSA [heptapeptide selected against unmodified h31]” came in with a Frequency of 2.

In the case of “KPHAPHR [heptapeptide selected against unmodified h31]”, the Frequency came out at 1.

In the case of “KPPHHPR [heptapeptide selected against unmodified h31]”, the Frequency was 3.

With “KPPHPVY [heptapeptide selected against unmodified h31]”, the Frequency worked out at 1.

With “KPPQVPL [heptapeptide selected against unmodified h31]”, the Frequency came out at 2.

“KPVKVPR [heptapeptide selected against unmodified h31]” showed a Frequency of 2.
